Tested on: GPVI dimerization on platelets
Assay: Effect of agonists and inhibitors on 9E18 binding to platelets (GPVI dimerization), flow cytometry
Type: cell-based, human

## CN[C@@H]1C[C@H]2O[C@@](C)([C@@H]1OC)n1c3ccccc3c3c4c(c5c6ccccc6n2c5c31)C(=O)NC4 [staurosporine]
  inhibition of 9E18 binding to activated platelets: more than 2 fold

Source: patent publication US9029095B2, “Method and kits for determining platelet susceptibility to activation in a patient” (Institut National de la Sante et de la Recherche Medicale …, priority 2010, dated 2015)
